Data as given in PubChem BioAssay AID330 (DTP/NCI, 2004).
The list shows only some results of the screen, not a fair sample: it is rich in T/C values a quarter to a half above the control, in often repeated tests (any T/C) and in doses without a T/C. Further doses and runs are listed elsewhere. T/C gives the treated animals as a percentage of the vehicle group. Some doses have a count of surviving animals in place of a T/C: the source files T/C as zero there, which appears to mark a toxic dose or a test without result, not a measured value. Some survivor counts are full or nearly so, which does not show that the dose was tolerated: survival well below the control is almost never listed, so the zero probably covers shortened survival too. Counts of survivors are from the toxicity check (mostly the fifth day) where no day follows; animals may have died later. Schedule codes are those of the source, read here as Q, the interval in days (D) or hours (H), X, the number of doses. For survival time, this PubChem deposit counts one and a half times the control or more as active, and values a quarter to a half above the control carry no call in these data; other NCI protocols may use other cut-offs. Some entries were tested several times; their values stand side by side, smallest first. Some T/C values are followed by the survivors on the day toxicity was checked, most often the fifth; where none is given, no animal had died by that day.

Test system: P388 leukemia ip, CD2F1 mice, survival T/C
Experiment: NCI In Vivo Anticancer Drug Screen. Data for tumor model P388 Leukemia (intraperitoneal) in CD2F1 (CDF1) mice
Settings: T/C endpoint: median survival time, higher T/C = longer survival
[1] = dose: 200.0 mg/kg/injection, schedule: Q01DX009 (ip), vehicle: saline with Tween-80
[2] = dose: 50.0 mg/kg/injection, schedule: Q01DX009 (ip), vehicle: Klucel (hydroxypropylcellulose) (HPC)
[3] = dose: 100.0 mg/kg/injection, schedule: Q01DX009 (ip), vehicle: Klucel (hydroxypropylcellulose) (HPC)

## C[C@]12CCC(=O)C[C@@H]1CC[C@@H]1[C@@H]2CC[C@]2(C)[C@@H](OC(=O)N(CCCl)N=O)CC[C@@H]12
dose: 6.25 mg/kg/injection, schedule: Q01DX009 (ip), vehicle: saline
  survivor count: 6 of 6
dose: 12.5 mg/kg/injection, schedule: Q01DX009 (ip), vehicle: saline
  survivor count: 5 of 6
dose: 15.6 mg/kg/injection, schedule: Q04DX003 (ip), vehicle: saline
  T/C: 136 % of control
dose: 31.2 mg/kg/injection, schedule: Q04DX003 (ip), vehicle: saline
  T/C: 145 % of control
dose: 50.0 mg/kg/injection, schedule: Q01DX009 (ip), vehicle: other
  T/C: 130 % of control
dose: 62.5 mg/kg/injection, schedule: Q04DX003 (ip), vehicle: saline
  T/C: 146 % of control [5 of 6 alive]
dose: 125.0 mg/kg/injection, schedule: Q04DX003 (ip), vehicle: saline
  T/C: 135 and 145 % of control

## Cc1cc(N)c2ccccc2c1O
dose: 50.0 mg/kg/injection, schedule: Q01DX009 (ip), vehicle: saline with Tween-80
  survivor count: 6 of 6
dose: 100.0 mg/kg/injection, schedule: Q01DX009 (ip), vehicle: saline with Tween-80
  survivor count: 0 of 6
[1]
  survivor count: 0 of 6

## N#C/C1=C(\C#N)CCC2(C#N)C3C=CC(O3)C2(C#N)CC1 (centres undefined)
dose: 25.0 mg/kg/injection, schedule: Q01DX009 (ip), vehicle: Klucel (hydroxypropylcellulose) (HPC)
  survivor count: 2 of 6
[2]
  survivor count: 0 of 6
[3]
  survivor count: 0 of 6

## N/C(=N\S(=O)(=O)c1cc(C(F)(F)F)cc(C(F)(F)F)c1)c1ccncc1
[1]
  survivor count: 4 of 6

## O=C(c1cc2c(cc1Br)OCO2)N1CCc2cc([N+](=O)[O-])ccc21
dose: 100.0 mg/kg/injection, schedule: Q01DX009 (ip), vehicle: other
  survivor count: 6 of 6

## C=C1C(=O)C23C(OC(=O)/C=C/C)C1CCC2C12COC3(O)C(O)C1C(C)(C)CCC2O (centres undefined)
dose: 30.0 mg/kg/injection, schedule: Q01DX009 (ip), vehicle: saline with Tween-80
  survivor count: 5 of 6

## CCS1=C2C(=O)CCCC2=Nc2ccccc21 (centres undefined)
dose: 100.0 mg/kg/injection, schedule: Q01DX005 (ip), vehicle: saline
  survivor count: 0 of 6
dose: 200.0 mg/kg/injection, schedule: Q01DX005 (ip), vehicle: saline
  survivor count: 0 of 6

## Nc1nc(N)c2cc(CNc3ccc(C(=O)NC(CCC(=O)O)C(=O)O)cc3)cnc2n1 (centres undefined)
dose: 0.25 mg/kg/injection, schedule: Q01DX005 (ip), vehicle: saline with Tween-80
  T/C: 125 % of control
dose: 0.5 mg/kg/injection, schedule: Q01DX005 (ip), vehicle: saline with Tween-80
  T/C: 146 % of control
dose: 1.0 mg/kg/injection, schedule: Q01DX005 (ip), vehicle: saline with Tween-80
  T/C: 146 % of control
dose: 2.0 mg/kg/injection, schedule: Q01DX005 (ip), vehicle: saline with Tween-80
  T/C: 143 % of control
dose: 4.0 mg/kg/injection, schedule: Q01DX005 (ip), vehicle: saline with Tween-80
  survivor count: 9 of 9
dose: 8.0 mg/kg/injection, schedule: Q01DX005 (ip), vehicle: saline with Tween-80
  survivor count: 8 of 8

## CP1(=O)CCC2=C1CCc1cc(O)ccc12 (centres undefined)
[2]
  survivor count: 6 of 6
[3]
  survivor count: 6 of 6
dose: 200.0 mg/kg/injection, schedule: Q01DX009 (ip), vehicle: Klucel (hydroxypropylcellulose) (HPC)
  survivor count: 6 of 6

## CCO/C(C)=N\P(=O)(Oc1ccccc1)Oc1ccccc1
dose: 200.0 mg/kg/injection, schedule: Q01DX009 (ip), vehicle: distilled water + Tween-80
  survivor count: 5 of 6

## O=c1c2ccccc2sc2cccc(Sc3ccccc3)c12
[1]
  survivor count: 5 of 6
dose: 400.0 mg/kg/injection, schedule: Q01DX009 (ip), vehicle: saline with Tween-80
  survivor count: 6 of 6

## COC(=O)[C@H]1[C@H]2C[C@@H]3c4[nH]c5cc(OC)ccc5c4CCN3C[C@H]2C[C@@H](OC(=O)c2cccc(N(C)C)c2)[C@@H]1OC
dose: 50.0 mg/kg/injection, schedule: Q01DX005 (ip), vehicle: Klucel (hydroxypropylcellulose) (HPC)
  survivor count: 6 of 6
dose: 200.0 mg/kg/injection, schedule: Q01DX005 (ip), vehicle: Klucel (hydroxypropylcellulose) (HPC)
  survivor count: 3 of 6

## CCCCCCCCCCCCCCCC[N+]1([O-])CCCCCC1
dose: 100.0 mg/kg/injection, schedule: Q01DX009 (ip), vehicle: saline
  survivor count: 6 of 6
dose: 200.0 mg/kg/injection, schedule: Q01DX009 (ip), vehicle: saline
  survivor count: 0 of 6
